# Laboratory results reported in the supplement of paper PMC4604168 (melanoma cell lines).
# The other results are listed elsewhere or left out. Single values are uncertain, as repeats are few or missing.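 Imaging used 1,536-well plates; nuclei positive for cleaved PARP by antibody were divided by total DNA-stained nuclei to yield the apoptosis fraction. Doses for screening kept most cells viable, and cell lines differ markedly in resting and induced cleaved-PARP levels.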
# Tested on: WM115
# Experiment: cleaved PARP positive nuclei fraction relative to DMSO control; melanoma cells; higher = more apoptosis
# Conditions: library dose: low library concentration; 72 h
row,SMILES,cleaved PARP positive nuclei fraction [%]
1,"Clc1ccc(Nc2nnc(Cc3ccncc3)c3ccccc23)cc1 [vatalanib] + C=CCn1c(=O)c2cnc(Nc3ccc(N4CCN(C)CC4)cc3)nc2n1-c1cccc(C(C)(C)O)n1 [MK1775] (first compound 2 µM, partner dose 0.02 µM)",153
2,"CO[C@@H]1[C@H](N(C)C(=O)c2ccccc2)C[C@H]2O[C@]1(C)n1c3ccccc3c3c4c(c5c6ccccc6n2c5c31)C(=O)NC4 [Midostaurin] + COc1ccc2c(c1)CCC1C2CCC2(C)C(NCCCCCCN3C(=O)C=CC3=O)CCC12 [U73122] (first compound 0.08 µM, partner dose 0.4 µM)",152
3,"CC(C)(C)c1cnc(CSc2cnc(NC(=O)C3CCNCC3)s2)o1 + N#Cc1c(O)c2c(-c3ccc(-c4ccccc4O)cc3)csc2[nH]c1=O [A769662] (first compound 0.01 µM, partner dose 2 µM)",127
4,"Cn1nnc2c(C(N)=O)ncn2c1=O [temozolomide] + O=c1cc(-c2cccc3c2Sc2ccccc2S3)oc(N2CCOCC2)c1 [KU55933] (first compound 2 µM, partner dose 1 µM)",202
5,"C[C@@H]1CCN(C(=O)CC#N)C[C@@H]1N(C)c1ncnc2[nH]ccc12 + CCCCCCCCCCCC1=C(O)C(=O)C=C(O)C1=O [Embelin] (first compound 1 µM, partner dose 1.2 µM)",76.4
6,"C=CCn1c(=O)c2cnc(Nc3ccc(N4CCN(C)CC4)cc3)nc2n1-c1cccc(C(C)(C)O)n1 + C[C@@H]1CCN(C(=O)CC#N)C[C@@H]1N(C)c1ncnc2[nH]ccc12 [CP690550] (first compound 0.02 µM, partner dose 1 µM)",72.4

# Tested on: WM1716
# Experiment: as above
# Conditions: library dose: low library concentration; 72 h
row,SMILES,cleaved PARP positive nuclei fraction [%]
1,"CC(C)(C)c1cnc(CSc2cnc(NC(=O)C3CCNCC3)s2)o1 + OCCn1cc(-c2cnc3nnn(Cc4ccc5ncccc5c4)c3n2)cn1 [PF04217903] (first compound 0.01 µM, partner dose 1 µM)",73.4
2,"Cc1cc(N2CCOCC2)cc2[nH]c(-c3c(NC[C@@H](O)c4cccc(Cl)c4)cc[nH]c3=O)nc12 + O=C(O)C(=O)Nc1sc2c(c1C(=O)O)CCNC2 [TCS401] (first compound 0.2 µM, partner dose 1.66667 µM)",83.7
3,"COc1cc(Nc2ncc(F)c(Nc3ccc4c(n3)NC(=O)C(C)(C)O4)n2)cc(OC)c1OC [Tamatinib] + Cn1cc(/C=C2\C(=O)Nc3cccnc32)c2ccccc21 [GW441756] (first compound 0.4 µM, partner dose 0.4 µM)",87.9
4,"NC(=O)Nc1cc(-c2cccc(F)c2)sc1C(=O)N[C@H]1CCCNC1 + NCC(=O)Nc1ccc(-n2nc(C(F)(F)F)cc2-c2ccc3c(ccc4ccccc43)c2)cc1 [OSU03012] (first compound 0.02 µM, partner dose 1 µM)",201
5,"Nc1cccc2c1CN(C1CCC(=O)NC1=O)C2=O (stereo not given) [lenalidomide] + O=C(Nc1ccccc1)c1cc([N+](=O)[O-])ccc1Cl [GW9662] (first compound 1 µM, partner dose 2 µM)",119
6,"Cn1cncc1[C@@](N)(c1ccc(Cl)cc1)c1ccc2c(c1)c(-c1cccc(Cl)c1)cc(=O)n2C [tipifarnib] + COc1cc(N2CCC(N3CCN(C)CC3)CC2)ccc1Nc1ncc(Cl)c(Nc2ccccc2S(=O)(=O)C(C)C)n1 [NVP-TAE684] (first compound 0.01 µM, partner dose 0.08 µM)",171
7,"Nc1cccc2c1CN(C1CCC(=O)NC1=O)C2=O (stereo not given) [lenalidomide] + CN(C)S(=O)(=O)c1ccc2c(c1)/C(=C/c1cc3c([nH]1)CCCC3)C(=O)N2 [SU6656] (first compound 1 µM, partner dose 0.4 µM)",70.3
8,"C[C@]1(c2nc3c(C(N)=O)cccc3[nH]2)CCCN1 [Veliparib] + Cc1ccc(NC(=O)c2cccc(N(C)C)c2)cc1NC(=O)c1ccc(O)cc1 [ZM336372] (first compound 1.4 µM, partner dose 2 µM)",82
9,"C=CCn1c(=O)c2cnc(Nc3ccc(N4CCN(C)CC4)cc3)nc2n1-c1cccc(C(C)(C)O)n1 + NC(=O)Nc1cc(-c2cccc(F)c2)sc1C(=O)N[C@H]1CCCNC1 [AZD7762] (first compound 0.02 µM, partner dose 0.02 µM)",130

# Given with bars between the fields: part of the list above.
row | SMILES | cleaved PARP positive nuclei fraction [%]
2 | Cc1cc(N2CCOCC2)cc2[nH]c(-c3c(NC[C@@H](O)c4cccc(Cl)c4)cc[nH]c3=O)nc12 + O=C(O)C(=O)Nc1sc2c(c1C(=O)O)CCNC2 [TCS401] (first compound 0.2 µM, partner dose 1.66667 µM) | 83.7
3 | COc1cc(Nc2ncc(F)c(Nc3ccc4c(n3)NC(=O)C(C)(C)O4)n2)cc(OC)c1OC [Tamatinib] + Cn1cc(/C=C2\C(=O)Nc3cccnc32)c2ccccc21 [GW441756] (first compound 0.4 µM, partner dose 0.4 µM) | 87.9
